PubChem BioAssay AID1224828 – NIAID, 2016

- Assay: 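Knock-downs that increase or decrease LPS-induced p65 nuclear translocation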 (primary screen)
- Cells: mouse RAW264.7 G9 macrophage reporter cells (GFP-p65, Tnf promoter-mCherry)
- Reagents: siRNA pool against mouse genes, 100 nM
- Timing: 2 days siRNA transfection, then 40 min LPS before fixation
- Conditions: LPS (Salmonella minnesota R595) at 10 ng/ml
- Measured: 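Microscopy ratio of nuclear to perinuclear-ring GFP-p65 signal, scaled to the plate median; gene score is the average of two replicate robust z-scores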
- Reading the numbers: p65 translocation robust z-score: higher = more nuclear NF-kappaB p65 after LPS than the plate median; nuclear/cytoplasmic p65 ratio: higher = more nuclear NF-kappaB p65
- Active means: 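Called active when z exceeds 3.3 or falls under -1.56 (median of Tlr4 controls), giving activity score of at least 50; no calls for control wells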
- Calls: active = hit (p65 shift raised or lowered); inactive = no clear change
Shown is one part, drawn at random, of about 17,000 reagents tested. In the full data, 762 (4.5%) were called active. 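Active calls include both raised and lowered p65 entry, mostly lowered; wells with fewer than 50 cells lack a z-score.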 Raw values are not corrected between plates. Unmarked entries are inactive. No sequences are given here.

target gene | p65 translocation robust z-score | nuclear/cytoplasmic p65 ratio, rep 1 | nuclear/cytoplasmic p65 ratio, rep 2 | low cell count flag
Magea13 | – | 1.23 | 1.06 | fewer than 50 cells per well; well left out of scoring
Aasdhppt | -0.6 | 1.25 | 1.5 | enough cells to score
Evpl | -1.03 | 1.33 | 1.23 | enough cells to score
Chat | -1.07 | 1.31 | 1.24 | enough cells to score
Piga | -0.41 | 1.46 | 1.33 | enough cells to score
Mrgpre | -1.14 | 1.69 | 1.34 | enough cells to score
Il3ra | -0.19 | 1.43 | 1.38 | enough cells to score
Or5g29 | – | 1.28 | 1.19 | fewer than 50 cells per well; well left out of scoring
Zfp112 | – | 1.02 | 0.912 | fewer than 50 cells per well; well left out of scoring
Ndufc2 | 0.77 | 1.51 | 1.51 | enough cells to score
Def8 | -1.43 | 1.3 | 1.41 | enough cells to score
Smad9 | -0.5 | 1.45 | 1.51 | enough cells to score
Atp6v1e1 | -1.33 | 1.27 | 1.46 | enough cells to score
Rbp2 | 0.83 | 1.63 | 1.23 | enough cells to score
Cstf1 | 1.14 | 1.72 | 1.99 | enough cells to score
Tubg2 | -0.27 | 1.47 | 1.47 | enough cells to score
Egflam | 0.15 | 1.49 | 1.66 | enough cells to score
Slc11a1 | -1.8 (active) | 1.13 | 1.08 | enough cells to score
Paqr9 | -1 | 1.31 | 1.25 | enough cells to score
C130058G22RIK | 0.53 | 1.48 | 1.63 | enough cells to score
Defb3 | 0.29 | 1.59 | 1.61 | enough cells to score
Peg3 | – | 1.34 | 1.26 | fewer than 50 cells per well; well left out of scoring
Smc5 | – | 0.697 | 1.25 | fewer than 50 cells per well; well left out of scoring
Nckap1l | 0.41 | 1.35 | 1.32 | enough cells to score
Tcp11 | – | 1.55 | 1.12 | fewer than 50 cells per well; well left out of scoring
Asb16 | -1.06 | 1.34 | 1.43 | enough cells to score
Saxo2 | 0.76 | 1.72 | 1.88 | enough cells to score
Casp2 | -0.83 | 1.45 | 1.53 | enough cells to score
Or12d12 | -0.57 | 1.61 | 1.46 | enough cells to score
Or5g9 | 0.1 | 1.7 | 1.57 | enough cells to score
Pde6b | -0.61 | 1.38 | 1.21 | enough cells to score
Pcdha5 | 1.66 | 1.64 | 1.45 | enough cells to score
Plbd2 | -1.97 (active) | 1.4 | 1.22 | enough cells to score
Rft1 | 0.71 | 1.65 | 1.67 | enough cells to score
Ngef | -0.41 | 1.67 | 1.57 | enough cells to score
Rnf122 | 0.69 | 1.52 | 1.48 | enough cells to score
Dnase2b | -0.07 | 1.45 | 1.36 | enough cells to score
Zic4 | – | 1.4 | 1.42 | fewer than 50 cells per well; well left out of scoring
Csta2 | -0.35 | 1.55 | 1.57 | enough cells to score

Part of the list above in another layout.
{"target gene":"Slc11a1","p65 translocation robust z-score":"-1.8 (active)","nuclear/cytoplasmic p65 ratio, rep 1":1.13,"nuclear/cytoplasmic p65 ratio, rep 2":1.08,"low cell count flag":"enough cells to score"}
{"target gene":"Paqr9","p65 translocation robust z-score":-1,"nuclear/cytoplasmic p65 ratio, rep 1":1.31,"nuclear/cytoplasmic p65 ratio, rep 2":1.25,"low cell count flag":"enough cells to score"}
{"target gene":"C130058G22RIK","p65 translocation robust z-score":0.53,"nuclear/cytoplasmic p65 ratio, rep 1":1.48,"nuclear/cytoplasmic p65 ratio, rep 2":1.63,"low cell count flag":"enough cells to score"}
{"target gene":"Defb3","p65 translocation robust z-score":0.29,"nuclear/cytoplasmic p65 ratio, rep 1":1.59,"nuclear/cytoplasmic p65 ratio, rep 2":1.61,"low cell count flag":"enough cells to score"}
{"target gene":"Peg3","nuclear/cytoplasmic p65 ratio, rep 1":1.34,"nuclear/cytoplasmic p65 ratio, rep 2":1.26,"low cell count flag":"fewer than 50 cells per well; well left out of scoring"}
{"target gene":"Smc5","nuclear/cytoplasmic p65 ratio, rep 1":0.697,"nuclear/cytoplasmic p65 ratio, rep 2":1.25,"low cell count flag":"fewer than 50 cells per well; well left out of scoring"}
{"target gene":"Nckap1l","p65 translocation robust z-score":0.41,"nuclear/cytoplasmic p65 ratio, rep 1":1.35,"nuclear/cytoplasmic p65 ratio, rep 2":1.32,"low cell count flag":"enough cells to score"}
{"target gene":"Tcp11","nuclear/cytoplasmic p65 ratio, rep 1":1.55,"nuclear/cytoplasmic p65 ratio, rep 2":1.12,"low cell count flag":"fewer than 50 cells per well; well left out of scoring"}
{"target gene":"Asb16","p65 translocation robust z-score":-1.06,"nuclear/cytoplasmic p65 ratio, rep 1":1.34,"nuclear/cytoplasmic p65 ratio, rep 2":1.43,"low cell count flag":"enough cells to score"}
{"target gene":"Saxo2","p65 translocation robust z-score":0.76,"nuclear/cytoplasmic p65 ratio, rep 1":1.72,"nuclear/cytoplasmic p65 ratio, rep 2":1.88,"low cell count flag":"enough cells to score"}

More records:
target gene | p65 translocation robust z-score | nuclear/cytoplasmic p65 ratio, rep 1 | nuclear/cytoplasmic p65 ratio, rep 2 | low cell count flag
Or5p52 | – | 1.31 | 1.12 | fewer than 50 cells per well; well left out of scoring
Ric3 | 0.33 | 1.55 | 1.37 | enough cells to score
Pik3r2 | -0.09 | 1.67 | 1.37 | enough cells to score
Ebag9 | -0.74 | 1.41 | 1.23 | enough cells to score
Arhgap9 | 0.16 | 1.68 | 1.48 | enough cells to score
Rasa2 | -0.38 | 1.42 | 1.51 | enough cells to score
Padi2 | – | 1.47 | 1.31 | fewer than 50 cells per well; well left out of scoring
Or6c219 | -0.8 | 1.4 | 1.18 | enough cells to score
Sez6 | – | 1.09 | 1.18 | fewer than 50 cells per well; well left out of scoring
Yipf5 | 1.75 | 1.63 | 1.7 | enough cells to score
Notch4 | -0.32 | 1.46 | 1.32 | enough cells to score
Tlk1 | 2.28 | 1.81 | 1.67 | enough cells to score
Mterf4 | – | 1.46 | 1.36 | fewer than 50 cells per well; well left out of scoring
Pla2r1 | -0.47 | 1.46 | 1.32 | enough cells to score
Laptm4b | 2.66 | 1.73 | 1.97 | enough cells to score
Fam216b | 1.19 | 1.7 | 1.76 | enough cells to score
Fli1 | -0.55 | 1.32 | 1.34 | enough cells to score
Uba52 | -0.86 | 1.34 | 1.43 | enough cells to score
Itga5 | -0.74 | 1.44 | 1.23 | enough cells to score
Clmp | -0.09 | 1.36 | 1.59 | enough cells to score
